Earlier results as cited in patent US7557142B2, “Therapeutic use of methionine to reduce the toxicity of platinum-containing anti-tumor compounds” (Board of Trustees of Southern Illinois University, priority 1996, dated 2009).
At least one structure is not confirmed: it was looked up by name or label, or the drawing left a doubt.

Assays:
[1] = system: animals; details: literature; cited from earlier work
[2] = literature; cited from earlier work

CCN(CC)C(=S)S [DDTC, diethyldithiocarbamate]
CDDP otoprotection [1]: good CDDP otoprotection
effect on CDDP anti-tumor action [2]: does not interfere with antitumor action
